Results as given in PMC3227642.

Biological target: T1, GST-Bms1p (yeast) (UniProt Q08965)
T1 sequence: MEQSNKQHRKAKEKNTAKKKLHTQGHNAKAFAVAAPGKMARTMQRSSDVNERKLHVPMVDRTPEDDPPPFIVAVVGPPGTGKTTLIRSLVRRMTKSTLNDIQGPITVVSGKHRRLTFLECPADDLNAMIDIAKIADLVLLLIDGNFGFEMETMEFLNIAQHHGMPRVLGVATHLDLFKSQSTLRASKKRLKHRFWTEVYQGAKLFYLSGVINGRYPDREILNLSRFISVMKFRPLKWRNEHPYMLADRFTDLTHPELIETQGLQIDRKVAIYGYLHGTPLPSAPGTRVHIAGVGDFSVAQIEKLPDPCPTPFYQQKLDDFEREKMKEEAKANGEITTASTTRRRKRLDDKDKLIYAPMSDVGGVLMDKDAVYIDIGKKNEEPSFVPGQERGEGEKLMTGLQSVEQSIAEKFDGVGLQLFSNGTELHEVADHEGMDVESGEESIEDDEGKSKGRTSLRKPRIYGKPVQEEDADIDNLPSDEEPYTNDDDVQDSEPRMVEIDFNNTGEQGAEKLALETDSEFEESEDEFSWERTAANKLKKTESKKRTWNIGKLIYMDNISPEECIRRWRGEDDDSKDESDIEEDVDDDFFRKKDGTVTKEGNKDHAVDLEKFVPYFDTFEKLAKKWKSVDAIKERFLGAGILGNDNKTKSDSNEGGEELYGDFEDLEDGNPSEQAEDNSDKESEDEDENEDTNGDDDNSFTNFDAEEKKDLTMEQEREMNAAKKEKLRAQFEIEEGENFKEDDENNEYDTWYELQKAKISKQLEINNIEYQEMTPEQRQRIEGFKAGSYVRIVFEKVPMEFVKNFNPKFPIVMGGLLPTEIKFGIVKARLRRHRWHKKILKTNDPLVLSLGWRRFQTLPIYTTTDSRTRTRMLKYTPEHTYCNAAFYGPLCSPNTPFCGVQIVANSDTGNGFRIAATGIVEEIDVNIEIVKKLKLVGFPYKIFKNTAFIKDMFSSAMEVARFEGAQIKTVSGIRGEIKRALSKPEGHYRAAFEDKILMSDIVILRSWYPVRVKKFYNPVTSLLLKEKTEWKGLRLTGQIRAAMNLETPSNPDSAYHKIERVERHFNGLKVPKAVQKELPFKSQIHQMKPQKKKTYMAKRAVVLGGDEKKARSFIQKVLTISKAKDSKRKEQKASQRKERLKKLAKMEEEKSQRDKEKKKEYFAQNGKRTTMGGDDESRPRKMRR
Assay: pull-down; glutathione-agarose pulldown from clarified extracts (4 mg protein) of yeast grown in galactose (GST-BMS1 expressed) or glucose (not expressed); 4°C; GST Buffer (25 mM Tris pH 8.0, 150 mM NaCl, 5 mM MgCl2, 1 mM EDTA, 2.5% glycerol); washes with 0.05% or 0.5% Triton X-100; immunoblot with anti-Hsp90 antisera

binding: binds
Substance: Hsp90 (yeast (endogenous in BY4741))

Results are given in words; binding and its absence hold for the method and conditions named. Binding seen in cells or lysates may run through a third protein. A result given as binding can be weak or reduced; the word gives no strength. Tags and fused reporters may be left off the sequences shown.
